This experiment addresses T1, purine-rich element binding protein alpha (PURα) (human (endogenous in KYSE510)) (UniProt Q00577).
T1 sequence: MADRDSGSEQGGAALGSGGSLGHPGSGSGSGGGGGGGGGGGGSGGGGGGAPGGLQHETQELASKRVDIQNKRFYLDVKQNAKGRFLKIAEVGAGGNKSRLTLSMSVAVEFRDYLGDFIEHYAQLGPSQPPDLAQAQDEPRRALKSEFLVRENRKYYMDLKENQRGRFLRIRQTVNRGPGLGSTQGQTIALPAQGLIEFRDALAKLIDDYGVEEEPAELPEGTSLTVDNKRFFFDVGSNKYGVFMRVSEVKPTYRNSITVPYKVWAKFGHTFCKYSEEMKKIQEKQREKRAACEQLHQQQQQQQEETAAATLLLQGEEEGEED
Kind of experiment: affinity purification with mass spectrometry; whole-cell extracts of KYSE510 cells immunoprecipitated with anti-PURα antibody or rabbit IgG on magnetic beads; on-bead trypsin; label-free quantification (LFQ) LC-MS/MS; criteria unique peptides ≥1 and LFQ intensity ratio ≥1.8.

No constants are given. Whether binding was seen depends on the method and setting. In cells and extracts the contact can be indirect. A yes stands for co-enrichment or nearness to the bait. Other partners may have been found.

The values below come from PMC9481463.

B1: NOP58 (protein, UniProt Q9Y2X3 1-529)
chain: MLVLFETSVGYAIFKVLNEKKLQEVDSLWKEFETPEKANKIVKLKHFEKFQDTAEALAAFTALMEGKINKQLKKVLKKIVKEAHEPLAVADAKLGGVIKEKLNLSCIHSPVVNELMRGIRSQMDGLIPGVEPREMAAMCLGLAHSLSRYRLKFSADKVDTMIVQAISLLDDLDKELNNYIMRCREWYGWHFPELGKIISDNLTYCKCLQKVGDRKNYASAKLSELLPEEVEAEVKAAAEISMGTEVSEEDICNILHLCTQVIEISEYRTQLYEYLQNRMMAIAPNVTVMVGELVGARLIAHAGSLLNLAKHAASTVQILGAEKALFRALKSRRDTPKYGLIYHASLVGQTSPKHKGKISRMLAAKTVLAIRYDAFGEDSSSAMGVENRAKLEARLRTLEDRGIRKISGTGKALAKTEKYEHKSEVKTYDPSGDSTLPTCSKKRKIEQVDKEDEITEKKAKKAKIKVKVEEEEEEKVAEEEETSVKKKKKRGKKKHIKEEPLSEEEPCTSTAIASPEKKKKKKKKRENED
Take B1: the binding entry is listed as “binds”.

B2: PURβ (protein, UniProt Q96QR8 1-312)
chain: MADGDSGSERGGGGGPCGFQPASRGGGEQETQELASKRLDIQNKRFYLDVKQNAKGRFLKIAEVGAGGSKSRLTLSMAVAAEFRDSLGDFIEHYAQLGPSSPEQLAAGAEEGGGPRRALKSEFLVRENRKYYLDLKENQRGRFLRIRQTVNRGGGGFGAGPGPGGLQSGQTIALPAQGLIEFRDALAKLIDDYGGEDDELAGGPGGGAGGPGGGLYGELPEGTSITVDSKRFFFDVGCNKYGVFLRVSEVKPSYRNAITVPFKAWGKFGGAFCRYADEMKEIQERQRDKLYERRGGGSGGGEESEGEEVDED
As for B2, the binding entry is recorded as “binds”.
